Assay [1] concerns the target T1, A1CF (mouse (endogenous in liver)) (UniProt Q5YD48).
T1 sequence: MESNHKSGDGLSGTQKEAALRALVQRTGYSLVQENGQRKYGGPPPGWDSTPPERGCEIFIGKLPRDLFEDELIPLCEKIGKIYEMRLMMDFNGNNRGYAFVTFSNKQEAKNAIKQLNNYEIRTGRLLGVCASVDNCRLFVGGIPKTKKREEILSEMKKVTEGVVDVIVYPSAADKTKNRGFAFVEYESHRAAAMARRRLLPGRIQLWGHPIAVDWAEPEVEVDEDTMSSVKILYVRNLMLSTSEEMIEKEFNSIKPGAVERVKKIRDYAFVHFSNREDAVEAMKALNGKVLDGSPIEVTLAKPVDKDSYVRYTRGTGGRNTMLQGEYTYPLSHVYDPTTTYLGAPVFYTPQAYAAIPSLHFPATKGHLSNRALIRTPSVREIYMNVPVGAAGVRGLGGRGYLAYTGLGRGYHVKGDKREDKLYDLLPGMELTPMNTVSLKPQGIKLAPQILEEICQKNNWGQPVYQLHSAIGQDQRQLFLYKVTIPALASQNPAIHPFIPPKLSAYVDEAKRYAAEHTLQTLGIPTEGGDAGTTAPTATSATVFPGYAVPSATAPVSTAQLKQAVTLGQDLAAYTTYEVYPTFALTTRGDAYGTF
The assay can be described thus: co-IP; endogenous A1CF and TRIM21 in mouse liver lysate; RIPA buffer, Dynabeads protein G, washes with RIPA + 500 mM NaCl; Western blot. On the technique in general: In western blotting, separated proteins are transferred to a membrane and probed.

In assay [2] the target is T1, A1CF (mouse (endogenous in liver)). The assay can be described thus: co-IP; validation of RBM47 with A1CF (Supplemental Figure 1B); sample not given; IP procedure in RIPA buffer, Dynabeads protein G, Western blot.

Results are given in words; binding and its absence hold for the method and conditions named. In cells and extracts the contact can be indirect. Some entries that bind do so weakly or less than the wild type.

B1: TRIM21 E3 ubiquitin ligase (protein, UniProt Q62191 1-470)
chain: MSPSTTSKMSLEKMWEEVTCSICLDPMVEPMSIECGHCFCKECIFEVGKNGGSSCPECRQQFLLRNLRPNRHIANMVENLKQIAQNTKKSTQETHCMKHGEKLHLFCEEDGQALCWVCAQSGKHRDHTRVPIEEAAKVYQEKIHVVLEKLRKGKELAEKMEMDLTMQRTDWKRNIDTQKSRIHAEFALQNSLLAQEEQRQLQRLEKDQREYLRLLGKKEAELAEKNQALQELISELERRIRGSELELLQEVRIILERSGSWNLDTLDIDAPDLTSTCPVPGRKKMLRTCWVHITLDRNTANSWLIISKDRRQVRMGDTHQNVSDNKERFSNYPMVLGAQRFSSGKMYWEVDVTQKEAWDLGVCRDSVQRKGQFSLSPENGFWTIWLWQDSYEAGTSPQTTLHIQVPPCQIGIFVDYEAGVVSFYNITDHGSLIYTFSECVFAGPLRPFFNVGFNYSGGNAAPLKLCPLKM
B1: the binding entry in assay [1] is on record as “binds”.

B2: RBM47 (protein, UniProt Q91WT8 1-590)
chain: MTAEDSATAMNSDPTVGSSTKVPEGVAGAPNEAALLALIERTGYTMVQENGQRKYGGPPPGWEGPHPQRGCEVFVGKIPRDVYEDELVPVFETVGRIYELRLMMDFDGKNRGYAFVMYCHKHEAKRAVRELNNYEIRPGRLLGVCCSVDNCRLFIGGIPKMKKRGEILEEIAKVTEGVLNVIVYASAADKMKNRGFAFVEYESHRAAAMARRKLMPGRIQLWGHQIAVDWAEPEIDVDEDVMQTVKILYVRNLMIETTEETIKKSFGQFNPGCVERVKKIRDYAFVHFTSREDAVHAMNNLNGTELEGSCLEVTLAKPVDKEQYSRYQKAAKGGGGSAEAVAQQPSYVYSCDPYTLAYYGYPYNALIGPNRDYFVKTGSIRGRGRGAAGNRTPGPRGSYLGGYSAGRGIYSRYHEGKGKQQEKGYELVPNLEISPVNPVAIKPGTVAIPAIGAQYSMFQAAPAPKIIEDGKIHTMEHMISPIAVQPDPATAAAAAAAAAAAAVIPAVSTPPPFQGRPITPVYTVAPNVQRIPTAGIYGASYVPFAAPATATIATLQKNAAAAVYGGYAGYIPQAFPAALQVPIHDVYQTY
Consider B2, for which the binding entry in assay [2] is listed as “binds”.

These data come from paper PMC10721265.
